First the molecules themselves.
B1: ch127E2D3 (antibody, V domains shown)
VH: QVQLQQPGTELVKPGASVKLSCKASGYTFTSYWMHWVKQRPGEGLEWIGNIYPGSSSINYNEKFKSKATLTVDKSSSTAYMQLSSLTSEDSAVYYCARDRSSQYYFDYWGQGTTLTVSS
VL: DIVMSQSPSSLAVSAGEKVTMSCKSSQSLLNSRTRKNYLAWYQQKPGQSPKLLIYWASTRESGVPDRFTGSGSGTDFTLTISSVQAEDLAVYYCTQSYNLRTFGGGTKLEIK
B2: ch133B4C7 (antibody, V domains shown)
VH: B1 VH with E43Q, Y52N, G54S, S55N, S56G, S57D, I58T, Y60F
VL: B1 VL with K24N, T95K, N99T
B3: ch124E3D6 (antibody, V domains shown)
VH: B1 VH with E43Q, Y52N, G54S, S55N, S56G, S57D, I58T
VL: B1 VL with T95K
B4: ch147C6F3 (antibody, V domains shown)
VH: B1 VH with T30D, E43Q, I51L, Y52N, G54S, S55N, S56G, S57E, S66H, A97S
VL: B1 VL with M21L, P46S, I54M, S82T, S83N, T95K, N99I
B5: ch126A11A4 (antibody, V domains shown)
VH: QVQLQQPGTELVKPGASVKLSCKASGYTFTSYWMHWVKQRPEQGLEWIGNINPSNGDTNYNEKFKSKATLTVDKASNTAYMQLSSLTSEDSAVYYCGRDRSSQYYFDYWGQGTTLTVSS
VL: B1 VL with Y93F, T95K, Y98F, N99I
B6: ch140D2B10 (antibody, V domains shown)
VH: B5 VH with E42G, D57E, T58S, A75S, N77S, S91Y, G97A
VL: B1 VL with T95K, N99T
B7: ch147E11E2 (antibody, V domains shown)
VH: B5 VH with A16T, E42G, D57A, A75S, N77S, G97A
VL: B1 VL with T34S, N99T
B8: hu147E2-L3H4 (antibody, V domains shown)
VH: EVQLVQSGAEVKKPGSSVKVSCKASGYTFTSYWMHWVRQAPGQGLEWIGNINPSNGATNYNEKFKSRATLTVDKSTSTAYMELSSLRSEDTAVYYCARDRSSQYYFDYWGQGTTVTVSS
VL: DIQMTQSPSSLSASVGDRVTITCKSSQSLLNSRSRKNYLAWYQQKPGKAPKLLIYWASTRESGVPSRFSGSGSGTDFTLTISSLQPEDFATYYCTQSYTLRTFGGGTKVEIK
B9: hu147E2-L3H2 (antibody, V domains shown)
VH: B8 VH with I48M, A68V, L70I, V72A
VL: B8 VL
B10: hu147E2-L1H2 (antibody, V domains shown)
VH: B8 VH with I48M, A68V, L70I, V72A
VL: DIVMTQSPDSLAVSLGERATINCKSSQSLLNSRSRKNYLAWYQQKPGQPPKLLIYWASTRESGVPDRFSGSGSGTDFTLTISSLQAEDVAVYYCTQSYTLRTFGGGTKVEIK
B11: hu147E2-L1H4 (antibody, V domains shown)
VH: B8 VH
VL: B10 VL
B12: hu147E2-L2H4 (antibody, V domains shown)
VH: B8 VH
VL: B10 VL with P49S
B13: hu147E2-L2H2 (antibody, V domains shown)
VH: B8 VH with I48M, A68V, L70I, V72A
VL: B10 VL with P49S
B14: hu40E9-L2H10 (antibody, V domains shown)
VH: EVQLVQSGAEVKKPGSSVKVSCKASGYTFSSYVIHWVRQAPGQGLEWMGYINPYNDVIKYNEKFKGRVTLTSDKSTSTAYMELSSLRSEDTAVYYCARDSYYSYEAFAYWGQGTLVTVSS
VL: EIVLTQSPDFQSVTPKEKVTITCSASSSVSYMHWYQQKPDQSPKRLIYDTSKLASGVPSRFSGSGSGTDFTLTINSLEAEDAATYYCQQWSSNPPTFGGGTKVEIK
B15: hu40E9-L4H8 (antibody, V domains shown)
VH: B14 VH with Y54G, D99E, Y102S, E105D, A106G
VL: B14 VL with S91R, N93R
B16: hu40E9-L2H15 (antibody, V domains shown)
VH: B14 VH with D99G, E105D, A106G
VL: B14 VL
B17: hu40E9-L2H8 (antibody, V domains shown)
VH: B14 VH with Y54G, D99E, Y102S, E105D, A106G
VL: B14 VL
B18: hu40E9-L5H8 (antibody, V domains shown)
VH: B14 VH with Y54G, D99E, Y102S, E105D, A106G
VL: B14 VL with S91R, N93S
B19: hu40E9-L2H13 (antibody, V domains shown)
VH: B14 VH with S100G, E105D, A106G
VL: B14 VL
B20: hu40E9-L2H11 (antibody, V domains shown)
VH: B14 VH with E105R
VL: B14 VL
B21: hu40E9-L2H12 (antibody, V domains shown)
VH: B14 VH with S100D, E105D, A106G
VL: B14 VL
B22: hu40E9-L2H6 (antibody, V domains shown)
VH: B14 VH with D99E, Y101F, Y102S, E105D, A106G
VL: B14 VL
B23: ch40-C12-C10-E9 (antibody, V domains shown)
VH: EVQLQLSGPELVKPGASVKMSCKASGYTFSSYVIHWVKQKPGQGLEWIGYINPYNDVIKYNEKFKGKATLTSDKSSSTAYMELSSLTSEDSAVYYCARDSYYSYDGFAYWGQGTLVTVSA
VL: QIVLTQSPAIMSASPGEKVTMTCSASSSVSYMHWYQQKSGTSPKRWIYDTSKLASGVPARFSGSGSGTSYSLTISSMEAEDAATYYCQQWSSNPPTFGGGTKVEIK
B24: 16-F2-C11-D9 (antibody, V domains shown)
VH: EVQLQQSGPELVKPGASVKMSCKASGYTFTDFNIHWVKQSLGKSLEWIGYINPNDGGSTYNQKFKGKATLTINKSSSSAYMELRSLTSEDSAVYYCAIPFLDSWGQGTSVTVSS
VL: TLMMTQSPSSMYASLGERVTITCKASQDINSYLRWYQQKPGKSPKTLIYGASSLVDGVPSRFSGRGSGQDYSLTISSLEYEDMGIYYCLQYDEVPLTFGAGTKLELK
B25: 20-E11-E11-C2 (antibody, V domains shown)
VH: EVQLQQSGPEVVKPGASVKISCKASGYTFTDYYMNWVKQSHGKNLEWIGDINPIHGGISSNQKFSDKATLTVDKSSNTAYLELRSLTSEDSAIYYCARRIYYGYDWYFDVWGTGTTVTVSS
VL: DIVLSQSPAIMSASPGERVTMTCSASSSVTSRYFFWYQQKPGSSPKLWIYSTSNLASGVPVRFSGSGSGTSYSLTINNMAAEDAATYYCQQYSTSPSTFGAGTKLELK
B26: 40-C12-C10-E9 (antibody, V domains shown)
VH: B23 VH
VL: B23 VL
B27: 7-D8-G12-E4 (antibody, V domains shown)
VH: EVKLVESGGGLVKPGGSLKLSCAASGFTFSSYPMSWVRQTPAKRLEWVATISSGGGNTYYPDSVKGRFTISRDNARNTLYLQMSSLRSEDTAMYYCARGLYWYFDVWGAGTTVTVSS
VL: DIVLTQSPLSLPVSLGDQASISCRSSQSIAHSNGDTYLEWYLQNPGQSPKLLIYKVSNRISGVPDRFSGSGSGTDFTLKISRVEAEDLGVYYCFQGSHVPYTFGGGTKLEIK
B28: 3-C6-C11-F12 (antibody, V domains shown)
VH: EVHLVESGGGLVQPGGSRKLSCAGSGFTFSTYGMHWVRQAPEKGLEWVAYISNGGSTIYYADSVKGRFTISRDNPNDTLFLHMTSLGSEDTAMYYCARPTWGGFAYWGQGTLVTVSA
VL: B27 VL
B29: 2-F12-A6-G2 (antibody, V domains shown)
VH: EVQLVESRPGLVAPSQSLSITCTVSGFSLTSYGVSWVRQPPGKGLEWLGVIWGDGNTNYNSDLKTSLSISKDNSKSQVFLKLDSLQTDDTATYYCAKVSYWYFDVWGTGTTVTVSS
VL: DIQLTQPPASLSASVGETVTITCRASENIYSYLAWYQQKQGKSPQLLVYNAKTLPEGVPSRFSGSGSGTQFSLKINSLQPEDFGTYYCQHHYGTPPTFGTGTKLELK

Protein sequences, listed by entry. Tags and fused reporters are not part of them. Lines headed by an entry give the natural chain unless they say otherwise; changes in a name come on top.
UniProt Q95LI5: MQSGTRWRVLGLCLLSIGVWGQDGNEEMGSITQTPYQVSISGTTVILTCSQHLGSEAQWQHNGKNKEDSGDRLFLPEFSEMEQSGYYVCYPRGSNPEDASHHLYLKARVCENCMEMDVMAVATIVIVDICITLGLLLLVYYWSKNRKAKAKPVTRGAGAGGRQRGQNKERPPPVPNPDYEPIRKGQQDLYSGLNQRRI
UniProt Q95LI8: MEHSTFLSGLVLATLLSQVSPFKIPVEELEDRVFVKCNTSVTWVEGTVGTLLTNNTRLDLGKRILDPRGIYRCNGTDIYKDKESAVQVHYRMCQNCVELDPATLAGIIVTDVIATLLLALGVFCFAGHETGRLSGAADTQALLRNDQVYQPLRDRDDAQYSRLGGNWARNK
UniProt Q95LI7: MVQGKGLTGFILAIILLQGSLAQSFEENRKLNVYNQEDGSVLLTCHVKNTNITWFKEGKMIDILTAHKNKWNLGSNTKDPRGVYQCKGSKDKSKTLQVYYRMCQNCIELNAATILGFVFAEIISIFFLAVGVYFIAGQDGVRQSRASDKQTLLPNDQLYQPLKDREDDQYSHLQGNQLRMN
UniProt P07766: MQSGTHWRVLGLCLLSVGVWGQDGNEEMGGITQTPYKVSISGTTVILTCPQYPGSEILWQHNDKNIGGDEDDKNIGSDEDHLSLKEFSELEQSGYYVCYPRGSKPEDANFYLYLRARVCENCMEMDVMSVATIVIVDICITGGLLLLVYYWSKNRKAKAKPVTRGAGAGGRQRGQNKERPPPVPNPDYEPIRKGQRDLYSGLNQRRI
UniProt P04234: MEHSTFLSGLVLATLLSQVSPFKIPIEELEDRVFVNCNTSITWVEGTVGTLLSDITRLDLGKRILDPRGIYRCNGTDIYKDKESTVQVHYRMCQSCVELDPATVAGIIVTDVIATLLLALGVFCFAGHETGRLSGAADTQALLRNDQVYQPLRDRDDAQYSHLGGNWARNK
UniProt P09693: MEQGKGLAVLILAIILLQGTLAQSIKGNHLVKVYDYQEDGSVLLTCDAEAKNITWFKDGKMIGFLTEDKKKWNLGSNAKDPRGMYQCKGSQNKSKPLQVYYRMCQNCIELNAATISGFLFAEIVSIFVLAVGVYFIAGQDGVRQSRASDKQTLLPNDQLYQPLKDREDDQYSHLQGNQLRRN

Where a chain is given by its changes, count along the chain named. Results are given in words; binding and its absence hold for the method and conditions named. Some binding calls cover weakened binding; strength is not graded here.

In the first assay the target is cynomolgus CD3 (cynomolgus (Macaca fascicularis)) (UniProt Q95LI5+Q95LI8+Q95LI7). The assay can be described thus: FACS on 293T-cynoCD3mix cells.
As for B1, the binding entry is listed as “binds”.

Consider B2, for which the binding entry is on record as “binds”. With B3, the binding result is “binds”. On to B4, for which the binding entry is given as “binds”.

On to B5, for which the binding result is recorded as “binds”. With B6, the binding entry is “binds”. As to B7, the binding entry is given as “binds”. For the molecule B8, the binding entry was “binds”. With B9, the binding result is recorded as “binds”. Regarding B10, the binding result was “binds”.

For B11, the binding result was “binds”. Turning to B12, the binding entry is listed as “binds”.

Turning to B13, the binding entry was “binds”.

The target in another assay is T1, human CD3 (human) (UniProt P07766+P04234+P09693). Put plainly: FACS on Jurkat cells.
As for B14, the binding entry was “binds”. With B15, the binding entry is reported as “binds”. In the case of B16, the binding result is given as “binds”. Consider B17, for which the binding result is on record as “binds”. As to B18, the binding entry was “binds”.

As to B19, the binding entry is recorded as “binds”.

Turning to B20, the binding result was “binds”.

Consider B21, for which the binding entry is given as “binds”. With B22, the binding result is reported as “binds”. Turning to B23, the binding entry is listed as “binds”. With B4, the binding entry is “binds”. In the case of B5, the binding entry is reported as “binds”. Still for that read-out and setting: in the case of B7 it was “binds”; in that of B8, “binds”.

For the molecule B9, the binding result is reported as “binds”.

For another assay, the target named is T1, human CD3 (human). Put plainly: FACS on 293T-hCD3mix cells.
Regarding B24, the binding entry was “binds”. With B25, the binding entry is listed as “binds”. Same read-out and setting: in the case of B26 it was “binds”. B27: the binding result is recorded as “binds”. On to B28, for which the binding result was “binds”.

For the molecule B29, the binding entry is given as “binds”.

The values are drawn from patent US20250223358A1.
